PubChem BioAssay AID493246, Drosophila RNAi Screening Center – 2011
Aim: 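Genome-wide search for dsRNAs that reduce cell number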 (primary screen). Cell system: Drosophila Kc and S2R+ cells. Reagent: long dsRNA against Drosophila genes. Detection: 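Cell number per well after knock-down, printed as raw plate values; calls were based on per-plate z-scores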. Direction: Kc cell number and S2R+ cell number: higher = more cells remaining. Active means: 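Active when the per-plate z-score of cell number is 3 or more in the direction of fewer cells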.
The deposit covers about 21,000 reagents; this is a random part of those that have a named target and a result. Over the whole deposit, 429 (2%) got an active call. 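Values are raw and not normalised between plates; calls rest on per-plate z-scores that were not deposited.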 A plus sign joins genes that one reagent is predicted to hit. Not stated in the record: the amount of reagent, the time to read-out.

gene | dsRNA | Kc cell number, rep 1 | Kc cell number, rep 2 | S2R+ cell number, rep 1 | S2R+ cell number, rep 2 | outcome
ND-B17.2 | DRSC00577 | 1.62e6 | 1.62e6 | 1.07e6 | 1.17e6 | inactive
PGAP1 | DRSC18286 | 5.25e5 | – | 8.85e5 | – | inactive
CG5618 | DRSC11780 | 1.85e6 | 2.00e6 | 1.21e6 | 1.27e6 | inactive
Spn28F | DRSC03615 | 1.44e6 | 1.54e6 | 1.23e6 | 1.35e6 | inactive
LManVI | DRSC03224 | 1.59e6 | 1.64e6 | 1.06e6 | 1.20e6 | inactive
RnrL | DRSC03413 | 1.18e6 | 1.20e6 | 8.09e5 | 9.86e5 | inactive
TfIIEbeta | DRSC08701 | 1.55e6 | 1.44e6 | 1.13e6 | 1.33e6 | inactive
kst | DRSC08719 | 1.33e6 | 1.48e6 | 1.11e6 | 1.06e6 | inactive
Poxn | DRSC05589 | 1.56e6 | 1.61e6 | 1.15e6 | 1.29e6 | inactive
Poxn | DRSC07512 | 1.62e6 | 1.66e6 | 1.12e6 | 1.30e6 | inactive
CG10097 + CG10096 | DRSC14189 | 1.33e6 | 1.52e6 | 1.17e6 | 1.31e6 | inactive
CG10097 + CG10096 | DRSC14190 | 1.35e6 | 1.34e6 | 1.24e6 | 1.31e6 | inactive
bif | DRSC18901 | 1.35e6 | 1.59e6 | 9.68e5 | 1.05e6 | inactive
bif | DRSC20313 | 6.04e5 | – | 8.35e5 | – | inactive
eIF3m | DRSC07142 | 1.19e6 | 1.26e6 | 8.03e5 | 9.11e5 | inactive
CG30484 | DRSC05457 | 1.42e6 | 1.39e6 | 9.56e5 | 1.14e6 | inactive
CG42553 | DRSC08356 | 1.33e6 | 1.39e6 | 1.13e6 | 1.33e6 | inactive
CG14327 | DRSC14806 | 1.50e6 | 1.30e6 | 1.05e6 | 1.13e6 | inactive
Wnk | DRSC11813 | 1.40e6 | 1.42e6 | 7.61e5 | 9.12e5 | active
CG4935 | DRSC01924 | 1.60e6 | 1.67e6 | 1.34e6 | 1.51e6 | inactive
CG12947 | DRSC14575 | 1.38e6 | 1.44e6 | 1.31e6 | 1.41e6 | inactive
CG34202 | DRSC05907 | 4.98e5 | – | 7.70e5 | – | inactive
CG10209 | DRSC05980 | 1.47e6 | 1.50e6 | 1.17e6 | 1.30e6 | inactive
CG13243 | DRSC01920 | 1.80e6 | 2.02e6 | 1.31e6 | 1.43e6 | inactive
pcm | DRSC20361 | 1.56e6 | 1.68e6 | 1.06e6 | 1.15e6 | inactive
Scamp | DRSC20286 | 1.64e6 | 1.62e6 | 1.01e6 | 1.14e6 | inactive
CG17258 | DRSC00495 | 1.72e6 | 1.73e6 | 1.22e6 | 1.46e6 | inactive
Neu2 | DRSC11819 | 1.44e6 | 1.41e6 | 1.29e6 | 1.40e6 | inactive
CG1236 | DRSC12203 | 1.82e6 | 1.86e6 | 1.22e6 | 1.39e6 | inactive
Tsp96F | DRSC14147 | 5.41e5 | – | 7.52e5 | – | inactive
CG8664 | DRSC20116 | 1.56e6 | 1.53e6 | 1.23e6 | 1.32e6 | inactive
CG6118 | DRSC15968 | 3.90e5 | 4.86e5 | 7.11e5 | 8.09e5 | active
CG7706 | DRSC16295 | 1.57e6 | 1.74e6 | 1.12e6 | 1.23e6 | inactive
Mlc2 | DRSC16741 | 5.74e5 | – | 8.48e5 | – | inactive
Vps26 | DRSC18555 | 5.14e5 | – | 6.65e5 | – | inactive
CG3251 | DRSC00586 | 1.70e6 | 1.80e6 | 1.32e6 | 1.43e6 | inactive
Acox57D-d | DRSC04561 | 1.38e6 | 1.46e6 | 1.16e6 | 1.23e6 | inactive
Nnf1a | DRSC06394 | 1.61e6 | 1.42e6 | 1.04e6 | 1.24e6 | inactive
fiz | DRSC20188 | 6.21e5 | – | 8.14e5 | – | inactive
CG5050 | DRSC02807 | 1.63e6 | 1.63e6 | 1.36e6 | 1.50e6 | inactive
CG3708 | DRSC18646 | 1.62e6 | 1.66e6 | 1.04e6 | 1.18e6 | inactive
CG5968 | DRSC02916 | 1.64e6 | 1.62e6 | 1.36e6 | 1.58e6 | inactive
lectin-21Ca | DRSC00541 | 1.47e6 | 1.49e6 | 9.83e5 | 1.12e6 | inactive
Dtg | DRSC15998 | 1.54e6 | 1.62e6 | 1.25e6 | 1.34e6 | inactive
Smg6 | DRSC16029 | 1.65e6 | 1.64e6 | 1.32e6 | 1.38e6 | inactive
Gpa2 | DRSC21071 | 1.42e6 | 1.45e6 | 1.03e6 | 1.14e6 | inactive
CG8586 | DRSC07218 | 1.42e6 | 1.45e6 | 1.16e6 | 1.28e6 | inactive
Myo28B1 | DRSC03375 | 1.67e6 | 1.70e6 | 1.25e6 | 1.44e6 | inactive
RanBP3 | DRSC14217 | 1.50e6 | 1.66e6 | 1.00e6 | 1.14e6 | inactive
CG8929 | DRSC07298 | 1.40e6 | 1.45e6 | 1.20e6 | 1.21e6 | inactive
Polr3A | DRSC19766 | 1.47e6 | 1.47e6 | 1.05e6 | 1.12e6 | inactive
hog | DRSC19057 | 1.28e6 | 1.47e6 | 1.10e6 | 1.21e6 | inactive
brn | DRSC18746 | 6.38e5 | – | 8.76e5 | – | inactive
Ror | DRSC03414 | 1.51e6 | 1.53e6 | 1.16e6 | 1.33e6 | inactive
Hpr1 | DRSC12296 | 1.55e6 | 1.62e6 | 1.44e6 | 1.49e6 | inactive
CG12818 | DRSC14556 | 1.65e6 | 1.49e6 | 1.19e6 | 1.29e6 | inactive
CG3770 | DRSC04416 | 1.28e6 | 1.33e6 | 9.62e5 | 9.69e5 | inactive
Pisd | DRSC15935 | 1.53e6 | 1.54e6 | 1.02e6 | 1.12e6 | inactive
Mat89Ba | DRSC14540 | 1.44e6 | 1.62e6 | 1.13e6 | 1.20e6 | inactive

Part of the list above, set out differently:
CG10209 [DRSC05980] → Kc cell number, rep 1 = 1.47e6; Kc cell number, rep 2 = 1.50e6; S2R+ cell number, rep 1 = 1.17e6; S2R+ cell number, rep 2 = 1.30e6; outcome = inactive
CG13243 [DRSC01920] → Kc cell number, rep 1 = 1.80e6; Kc cell number, rep 2 = 2.02e6; S2R+ cell number, rep 1 = 1.31e6; S2R+ cell number, rep 2 = 1.43e6; outcome = inactive
pcm [DRSC20361] → Kc cell number, rep 1 = 1.56e6; Kc cell number, rep 2 = 1.68e6; S2R+ cell number, rep 1 = 1.06e6; S2R+ cell number, rep 2 = 1.15e6; outcome = inactive
Scamp [DRSC20286] → Kc cell number, rep 1 = 1.64e6; Kc cell number, rep 2 = 1.62e6; S2R+ cell number, rep 1 = 1.01e6; S2R+ cell number, rep 2 = 1.14e6; outcome = inactive
CG17258 [DRSC00495] → Kc cell number, rep 1 = 1.72e6; Kc cell number, rep 2 = 1.73e6; S2R+ cell number, rep 1 = 1.22e6; S2R+ cell number, rep 2 = 1.46e6; outcome = inactive
Neu2 [DRSC11819] → Kc cell number, rep 1 = 1.44e6; Kc cell number, rep 2 = 1.41e6; S2R+ cell number, rep 1 = 1.29e6; S2R+ cell number, rep 2 = 1.40e6; outcome = inactive
